# Measured values from patent US20060062841A1, “Liposomal vectors” (priority 2004, published 2006).
# At least one compound was matched to its structure with a doubt left.
# Assays:
# NF-κB = conditions: via suppressing signal-induced degradation of IκBα; cited from earlier work
# TNF-α = conditions: intraperitoneal injection; cited from earlier work
# [1] = Turbidity (absorbance at 600 nm) of liposomes and DEX suspension; type: physicochemical
SMILES,NF-κB activation (NF-κB),cationic lipid vector-mediated TNF-α induction (TNF-α),turbidity over time ([1]; absorbance at 600 nm),homogeneity of the solution ([1]; same protocol as liposome preparation)
COc1ccc2cc1Oc1ccc(cc1)C[C@H]1c3cc(c(OC)cc3CCN1C)Oc1c(OC)c(OC)cc3c1[C@H](C2)N(C)CC3 [tetrandrine],inhibit NF-κB activation,–,–,–
"C[C@@H]1C[C@H]2[C@@H]3CCC4=CC(=O)C=C[C@]4(C)[C@@]3(F)[C@@H](O)C[C@]2(C)[C@@]1(O)C(=O)CO [DEX, dexamethasone]",–,suppressed,rapid decrease,could not be formulated into a homogeneous solution
